The series is described as follows: BUP calibration: UV absorbance at 270 nm and 262 nm vs. BUP concentration in pH-2 water. Particulars: for Relative Absorbance Intensity at 262 nm: pH-2 water spectrum subtracted.

With `CCCCN1CCCCC1C(=O)Nc1c(C)cccc1C` (centres unmarked) [BUP free base, bupivacaine], the “Relative Absorbance Intensity at 262 nm” value runs as follows: ([BUP] 0.00022364 mg/ml in pH-2 water) −0.0825; ([BUP] 0.0022364 mg/ml in pH-2 water) −0.1004; ([BUP] 0.022364 mg/ml in pH-2 water) −0.0681; ([BUP] 0.22364 mg/ml in pH-2 water) 0.2393; ([BUP] 0.72684 mg/ml in pH-2 water) 1.1347; ([BUP] 1.2300 mg/ml in pH-2 water) 2.0130. Also, where the note is “[BUP] 2.2364 mg/ml in pH-2 water”, the “Relative Absorbance Intensity at 262 nm” value is given as 3.0275. Besides, the “Slope of linear best fit, absorption at 262 nm vs. BUP concentration (mg/ml)” value (pH-2 water) is 1.4482.
